Taken from: PubChem BioAssay AID1259405 (NCATS, 2018)
Shown is an unselected part of about 50,000 deposited reagents. About 4,000 of all reagents (8%) count as active. 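Mouse siRNA library applied to hamster cells; one well for each siRNA.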 A number with no mark means an inactive call.

Test: 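Mouse-designed siRNAs used to find CHO productivity engineering targets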 (primary screen)
Cells: Chinese hamster CHO-K1 ovary cells with stable secreted eGFP expression
Reagents: single siRNA against mouse genes, 0.8 pmol siRNA per well (2 µl of 400 nM stock)
Timing: 3 days
Detection: 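Percent of the per-plate non-targeting control median for intracellular GFP per well by laser scanning cytometry and for cell viability by ATP luminescence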
Direction: GFP, % of control: higher = more GFP per well, higher productivity; viability (ATP), % of control: higher = more viable cells (more ATP)
Call rule: 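Called active when intracellular GFP, relative to negative control, is at or above 120%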

After knock-down of Crygd (GeneID 12967) [SID363550168], the record shows GFP, % of control 67.5; viability (ATP), % of control 67.4.
For Crygd (GeneID 12967) [SID363564677], the values are GFP, % of control 29.7; viability (ATP), % of control 58.3.
After knock-down of Crygd (GeneID 12967) [SID363588222], the record shows GFP, % of control 92.9; viability (ATP), % of control 131.
Depletion of Asic3 (GeneID 171209) [SID363547283] came out at: GFP, % of control 98.9; viability (ATP), % of control 143.
Silencing of Asic3 (GeneID 171209) [SID363558052] gave: GFP, % of control 80.6; viability (ATP), % of control 124.
Against Asic3 (GeneID 171209) [SID363559810], the entry reads GFP, % of control 76.9; viability (ATP), % of control 63.6.
Against Cd9 (GeneID 12527) [SID363572935], the values are GFP, % of control 100; viability (ATP), % of control 73.8.
Cd9 (GeneID 12527) [SID363577511] scored GFP, % of control 124 (active); viability (ATP), % of control 93.
After knock-down of Cd9 (GeneID 12527) [SID363581031] the results were GFP, % of control 76.8; viability (ATP), % of control 77.4.
Silencing of Tstd2 (GeneID 272027) [SID363547123] gave: GFP, % of control 42.7; viability (ATP), % of control 60.4.
For Tstd2 (GeneID 272027) [SID363549935], the entry reads GFP, % of control 86.5; viability (ATP), % of control 111.
Against Tstd2 (GeneID 272027) [SID363587989], the values are GFP, % of control 106; viability (ATP), % of control 133.
Slc12a9 (GeneID 83704) [SID363574917] scored GFP, % of control 107; viability (ATP), % of control 124.
With knock-down of Slc12a9 (GeneID 83704) [SID363575973], the screen gave GFP, % of control 48.8; viability (ATP), % of control 58.6.
For Slc12a9 (GeneID 83704) [SID363580549] the deposit lists GFP, % of control 66.3; viability (ATP), % of control 52.
For 4933409K07Rik (GeneID 108816) [SID363552399], the entry reads GFP, % of control 61.9; viability (ATP), % of control 60.1.
Knock-down of 4933409K07Rik (GeneID 108816) [SID363585535] gave: GFP, % of control 88.9; viability (ATP), % of control 93.9.
After knock-down of 4933409K07Rik (GeneID 108816) [SID363585886] the results were GFP, % of control 123 (active); viability (ATP), % of control 117.
After knock-down of Hs6st2 (GeneID 50786) [SID363570518], the screen gave GFP, % of control 115; viability (ATP), % of control 80.7.
Hs6st2 (GeneID 50786) [SID363579318] showed GFP, % of control 79.8; viability (ATP), % of control 68.7.
Silencing of Hs6st2 (GeneID 50786) [SID363583190] resulted in: GFP, % of control 109; viability (ATP), % of control 116.
After knock-down of Hspa12b (GeneID 72630) [SID363540451], the screen gave GFP, % of control 68.8; viability (ATP), % of control 79.5.
Depletion of Hspa12b (GeneID 72630) [SID363542203] gave: GFP, % of control 94.7; viability (ATP), % of control 66.5.
For Hspa12b (GeneID 72630) [SID363567119], the entry reads GFP, % of control 119; viability (ATP), % of control 87.7.
Silencing of Usp11 (GeneID 236733) [SID363574565] gave: GFP, % of control 80.3; viability (ATP), % of control 99.3.
With knock-down of Usp11 (GeneID 236733) [SID363575621] the results were GFP, % of control 50.6; viability (ATP), % of control 59.2.
Against Usp11 (GeneID 236733) [SID363580197], the entry reads GFP, % of control 33.7; viability (ATP), % of control 54.
With knock-down of H2al1m (GeneID 76383) [SID363545857], the record shows GFP, % of control 89.9; viability (ATP), % of control 83.3.
H2al1m (GeneID 76383) [SID363549370] scored GFP, % of control 83.6; viability (ATP), % of control 64.6.
H2al1m (GeneID 76383) [SID363563176] gave GFP, % of control 71.5; viability (ATP), % of control 76.9.
Silencing of Crip2 (GeneID 68337) [SID363572294] gave: GFP, % of control 59.7; viability (ATP), % of control 57.
Silencing of Crip2 (GeneID 68337) [SID363574054] came out at: GFP, % of control 95.2; viability (ATP), % of control 105.
Depletion of Lipt2 (GeneID 67164) [SID363541713] gave: GFP, % of control 83.7; viability (ATP), % of control 79.6.
Knock-down of Lipt2 (GeneID 67164) [SID363553305] gave: GFP, % of control 68.3; viability (ATP), % of control 80.
With knock-down of Lipt2 (GeneID 67164) [SID363566629], the record shows GFP, % of control 69.6; viability (ATP), % of control 77.9.
For Sp110 (GeneID 109032) [SID363545796], the values are GFP, % of control 83.1; viability (ATP), % of control 88.7.
Silencing of Sp110 (GeneID 109032) [SID363549309] came out at: GFP, % of control 85.1; viability (ATP), % of control 55.7.
With knock-down of Sp110 (GeneID 109032) [SID363563115] the results were GFP, % of control 138 (active); viability (ATP), % of control 93.5.
After knock-down of Pcbp4 (GeneID 59092) [SID363553933], the screen gave GFP, % of control 66; viability (ATP), % of control 38.3.
Pcbp4 (GeneID 59092) [SID363561890] scored GFP, % of control 44.3; viability (ATP), % of control 28.7.
For Pcbp4 (GeneID 59092) [SID363565628], the entry reads GFP, % of control 50.2; viability (ATP), % of control 56.4.

Reformatted: results already given.
{"gene": "4933409K07Rik (GeneID 108816)", "PubChem SID": "SID363585886", "GFP, % of control": "123 (active)", "viability (ATP), % of control": 117}
{"gene": "Hs6st2 (GeneID 50786)", "PubChem SID": "SID363570518", "GFP, % of control": 115, "viability (ATP), % of control": 80.7}
{"gene": "Hs6st2 (GeneID 50786)", "PubChem SID": "SID363579318", "GFP, % of control": 79.8, "viability (ATP), % of control": 68.7}
{"gene": "Hs6st2 (GeneID 50786)", "PubChem SID": "SID363583190", "GFP, % of control": 109, "viability (ATP), % of control": 116}
{"gene": "Hspa12b (GeneID 72630)", "PubChem SID": "SID363540451", "GFP, % of control": 68.8, "viability (ATP), % of control": 79.5}
{"gene": "Hspa12b (GeneID 72630)", "PubChem SID": "SID363542203", "GFP, % of control": 94.7, "viability (ATP), % of control": 66.5}
